PubChem BioAssay AID2685 (National Center for Advancing Translational Sciences (NCATS), 2010)
The list shows a part of the results. Shown are side measurements of this screen, not its main read-out; they come without a call. Most of these compounds were active or inconclusive in the main read-out, so they are no random draw. Words in brackets tell the shape of the fitted curve; partial curves, single points and poor fits give uncertain potencies.

Assay: qHTS Assay for Lipid Storage Modulators in Drosophila S3 Cells;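 for cell number change: cells counted by Cell Tracker Red CMTPX staining in the red channel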
Conditions: BODIPY lipid droplet fluorescence, 18-24 h; for cell number change: measured here: cell count max response, cells fed with added oleic acid
In short: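 Drosophila S3 cells got compounds at several concentrations plus oleic acid (400 uM solution). Laser-scanning cytometry with 488 nm excitation read lipid droplets at 500-530 nm and cells at 575-640 nm. Percent activity was relative to 20 uM Triacsin C.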

[1] = measured here: lipid fluorescence (Fed channel) AC50, cells fed with added oleic acid
[2] = measured here: cell number channel AC50, cells fed with added oleic acid

Row | Structure (SMILES) | cell number change | AC50 [1] | AC50 [2]
1 | C=C(C)/C=N/NC(=S)Nc1ccc(S(=O)(=O)N2CCOCC2)cc1 | 5.09% |  | 
2 | Cc1nc2sc3c(O)cc(=O)[nH]c3c2c(C)c1C | 18.1% | 2.31 µM [rising, full curve, poor fit] | 
3 | NC(=S)N/N=C/c1ccc(-c2ccccc2)o1 | -1.48% | 0.651 µM [rising, single point] | 0.731 µM [rising, single point]
4 | CCc1noc(C)c1C(=O)OCC(=O)Nc1c(F)cccc1F | 1.61% |  | 
5 | CC[C@@H](C)[C@H](CN[C@H](CNC)C(C)C)NC[C@@H](C)c1ccc(CC(C)C)cc1 | -0.299% | 32.6 µM [rising, single point] | 
6 | O=C(Cc1ccc(S(=O)(=O)N2CCCC2)s1)Nc1nc2c(s1)CCCC2 |  |  | 6.51 µM [rising, single point]
7 | CC(=O)Nc1ccc(S(=O)(=O)NCCC(=O)Nc2ncccc2C)cc1 |  | 8.2 µM [rising, partial curve] | 
8 | Cc1ccc(C(=O)NC2=NCCS2)cc1Cl | 34.7% | 6.51 µM [rising, single point] | 
9 | O=c1oc2ccccc2n1Cc1ccccc1F | -22.5% |  | 
10 | CC(Sc1nnc(C(C)Oc2ccccc2F)o1)C(=O)NCc1ccc2c(c1)OCO2 (stereo not given) | -6.38% | 0.651 µM [falling, partial curve, poor fit] | 
11 | O=C(N/N=C/c1ccc2ncccc2c1)c1ccco1 | 27% | 0.517 µM [falling, single point] | 
12 | O=C(COc1cccc([N+](=O)[O-])c1)NN1C(=O)c2ccccc2C1=O | 21% | 1.64 µM [rising, full curve, poor fit] | 
13 | CCN(CC)S(=O)(=O)c1ccc(NS(=O)(=O)c2ccc(OC)c([N+](=O)[O-])c2)cc1 | 19% | 16.4 µM [rising, single point] | 
14 | CC(C)N1CCC(N2CCN(Cc3ccc4nonc4c3)CC2CCO)CC1 (stereo not given) | 16.8% | 6.51 µM [rising, single point] | 
15 | CC(C)COc1ccc(C/C(N)=N/n2cnnc2)cc1 |  | 18.4 µM [falling, partial curve] | 
16 | Cc1cc(C(=O)OCC(=O)NCCc2ccccc2)c2ccccc2n1 | -38.8% | 2.59 µM [falling, single point] | 13 µM [falling, partial curve, poor fit]
17 | Cc1ccc2nc(NCCNC(=O)c3ccccc3)c(C#N)cc2c1 | -7.62% | 5.17 µM [falling, partial curve, poor fit] | 
18 | O=C(OCc1ccc(COC(=O)c2ccccn2)cc1)c1ccccn1 | 2.05% |  | 
19 | O=C(Cc1ccc(NC2=NC3CS(=O)(=O)CC3S2)cc1)NCc1ccc(Cl)cc1 (stereo not given) | 7.78% |  | 

Row | Structure (SMILES) | cell number change | AC50 [1] | AC50 [2]
20 | CC(C)CCN1CC(O)=C(c2nc3ccccc3[nH]2)C1=N | 56.5% | 3.26 µM [falling, partial curve] | 29.1 µM [rising, single point]
21 | COC(=O)C1=C(CS(=O)(=O)c2ccc(C)cc2)NC(=O)NC1c1ccc(OC)c(OC)c1 (stereo not given) | 14.6% | 0.731 µM [rising, single point] | 
22 | O=C(O)Cc1ccc(Nc2cnn(C34CC5CC(CC(CC(=O)O)(C5)C3)C4)c(=O)c2Cl)cc1 | -36.5% | 29.1 µM [falling, single point] | 0.0259 µM [falling, full curve]
23 | COc1ccc(-c2ccc(SCC(=O)N3CCCC3)nn2)cc1OC | 3.25% |  | 2.31 µM [rising, partial curve, poor fit]
24 | CS(=O)(=O)N(CC(=O)N1CCN(Cc2ccccc2)CC1)c1cccc(F)c1 | -15.7% | 0.206 µM [falling, full curve, poor fit] | 
25 | CC(=O)Nc1ccc(C(=O)N/C(=C\c2ccccc2)C(=O)Nc2cccc(C(=O)O)c2)cc1 | -11% | 0.259 µM [falling, partial curve, poor fit] | 
26 | COCCNC(=O)C(C(=O)c1ccc(F)cc1)n1cc(C)ccc1=O (stereo not given) | 8.58% | 6.51 µM [falling, single point] | 
27 | O=C(CCN1C(=O)C2C3CCC(C3)C2C1=O)Nc1ccccc1C(F)(F)F (stereo not given) | -17.6% | 32.6 µM [falling, single point] | 
28 | O=C1c2ccccc2-c2onc3ccc(NCCCn4ccnc4)c1c23 | -50.5% | 0.58 µM [rising, single point] | 29.1 µM [falling, single point]
29 | Nc1ccc2nc3c(=O)n(CCc4ccccc4)c(=O)[nH]c3nc2c1 | -42.8% | 29.1 µM [falling, partial curve, poor fit] | 29.1 µM [falling, single point]
30 | CSc1ncc(F)c(N(CCO)CCO)n1 | 1.14% | 3.26 µM [falling, single point] | 
31 | COc1ccc(C(=O)CSc2nc3nc(C)cc(C)n3n2)cc1OC | -3.28% | 0.146 µM [rising, full curve, poor fit] | 
32 | Cn1c(CCN2CCCCC2)nc2cc(NS(=O)(=O)c3ccccc3)ccc21 | 51.6% | 2.59 µM [rising, full curve] | 1.3 µM [rising, full curve]
33 | CCOc1ccc(NC(=S)NC(=O)c2c(Br)cnn2C)c([N+](=O)[O-])c1 | 16.7% | 18.4 µM [rising, single point] | 
34 | O=C(Nc1ccc2c(c1)OCO2)C1CC(=O)N(c2ccccc2)C1 (stereo not given) | 7.39% | 29.1 µM [rising, partial curve] | 
35 | O=C(Nc1cccc2ncccc12)c1ccc(F)cc1 | 17.5% | 25.9 µM [rising, single point] | 6.51 µM [rising, single point]
36 | Cc1ccc(/C=N/NC(=O)Cc2ccc(O)cc2)s1 |  | 0.13 µM [falling, full curve, poor fit] | 
37 | O=C(Nc1ccccc1C(=O)NC1CC1)c1ccc([N+](=O)[O-])o1 | -30.8% | 1.64 µM [falling, partial curve] | 1.64 µM [falling, full curve]
38 | O=C(N/N=C/c1ccc(N2CCOCC2)o1)c1cccc(C(F)(F)F)c1 | -55.5% | 16.4 µM [falling, partial curve] | 20.6 µM [falling, partial curve]

Grouped by structure, those above with two or more sulfur atoms.
Row | Structure (SMILES) | cell number change | AC50 [1] | AC50 [2]
1 | C=C(C)/C=N/NC(=S)Nc1ccc(S(=O)(=O)N2CCOCC2)cc1 | 5.09% |  | 
6 | O=C(Cc1ccc(S(=O)(=O)N2CCCC2)s1)Nc1nc2c(s1)CCCC2 |  |  | 6.51 µM [rising, single point]
13 | CCN(CC)S(=O)(=O)c1ccc(NS(=O)(=O)c2ccc(OC)c([N+](=O)[O-])c2)cc1 | 19% | 16.4 µM [rising, single point] | 
19 | O=C(Cc1ccc(NC2=NC3CS(=O)(=O)CC3S2)cc1)NCc1ccc(Cl)cc1 (stereo not given) | 7.78% |  | 

Further entries follow:

Row | Structure (SMILES) | cell number change | AC50 [1] | AC50 [2]
39 | Cc1cccc(COc2coc(CN3CCN(C(=O)c4ccco4)CC3)cc2=O)c1 | -5.6% | 14.6 µM [falling, single point] | 
40 | O=C(O)c1cccc(N2C(=O)c3cccc4c(Cl)ccc(c34)C2=O)c1 | 1.32% |  | 7.31 µM [rising, single point]
41 | Cc1coc2c(O)cc3c(c12)OC1(N2CCCCC2)C(=O)NCCCC31 (stereo not given) | -54.1% | 8.2 µM [falling, partial curve] | 8.2 µM [falling, partial curve]
42 | CCC(C)(C)NC(=O)C(c1ccc(F)cc1)N(Cc1ccc(OC)cc1)C(=O)c1cnccn1 (stereo not given) | -17.5% | 29.1 µM [falling, single point] | 
43 | NC(=O)Cc1nc2scc(-c3ccccc3)c2c(=O)[nH]1 | 62.5% | 0.58 µM [rising, full curve, poor fit] | 
44 | Oc1ccc(Br)cc1C=Nc1ccc2c3c(cccc13)CC2 | -9.87% | 29.1 µM [falling, single point] | 
45 | CCOc1ccc(N2CC(C(=O)Nc3ccc(F)cc3F)CC2=O)cc1 (stereo not given) |  | 0.116 µM [rising, single point] | 
46 | Cc1nn(C)cc1C(C(=O)NC1CCCCC1)N(C(=O)Cc1cccs1)c1ccc(Cl)cc1 (stereo not given) | 51.1% |  | 29.1 µM [rising, single point]
47 | CCn1c(Cc2ccc(OC)cc2)nc2ccccc21 | -0.265% | 29.1 µM [rising, single point] | 
48 | Nc1[nH]ncc1N=Nc1ccc(Cl)cc1 | 213% | 0.0184 µM [rising, full curve, poor fit] | 29.1 µM [rising, single point]
49 | COc1ccc(NC(=O)CN(C)CC(=O)Nc2ccc(Cl)cc2F)cc1 | -10.3% | 0.00461 µM [rising, full curve, poor fit] | 
50 | CCC(=O)N(Cc1cc2cc(OC)ccc2[nH]c1=O)c1ccc(C)cc1C | -11.6% | 1.3 µM [rising, single point] | 
51 | CCOC(=O)c1nn(-c2ccc(F)cc2)c2nc(-c3ccccc3)c(C#N)c(=O)n12 |  | 1.84 µM [rising, partial curve] | 
52 | COc1cc2c(cc1NC(=O)CSc1cccc[n+]1[O-])oc1ccccc12 | -31.6% | 6.51 µM [falling, single point] | 5.8 µM [falling, partial curve, poor fit]
53 | CC(C)[C@@H](C(=O)N1CCCC1)N1C(=O)N2CCc3c([nH]c4ccccc34)[C@@]2(C)C1=O | 3.24% | 29.1 µM [rising, single point] | 
54 | Cc1ccc(S(=O)(=O)N(C)C)cc1NC(=O)C(C)Sc1ccccc1 (stereo not given) | 25.4% |  | 0.116 µM [rising, full curve, poor fit]
55 | CCOc1ccc(-n2nc3ccc(NC(=O)CC)cc3n2)cc1 | -8.52% | 2.31 µM [rising, single point] | 
56 | O=C(CN(C(=O)CCC(=O)Nc1ccccn1)c1ccc2c(c1)OCO2)NCc1ccc(F)cc1 | -4.7% |  | 
57 | O=C(O)CCn1cc(/C=C\C(=O)c2ccc(Cl)cc2)c(-c2cccc(Br)c2)n1 | -24.6% | 9.2 µM [falling, partial curve] | 
